Values quoted from earlier work in patent publication US7908091B2, “Methods of predicting and monitoring tyrosine kinase inhibitor therapy” (Prometheus Laboratories Inc., priority 2006, dated 2011).
For at least one compound, name, drawing or mass did not settle the structure.

Tested on: imatinib-resistant gastrointestinal stromal tumors
Settings: in vivo; cited from earlier work

CCN(CC)CCNC(=O)c1c(C)[nH]c(/C=C2\C(=O)Nc3ccc(F)cc32)c1C [sunitinib]
time of tumor progression and death rate: delay the time of tumor progression and significantly reduce the death rate
